Some of the results follow. The data scatter; read single values as rough.
Tested on: Candida albicans SN425
Assay: biofilm OD600 B-score; higher = more biofilm (less inhibition)
Settings: 10 µM; assay detail: High-throughput adherence inhibition optical density biofilm assay with C. albicans SN425 in RPMI-1640/MOPS pH 7.0, 384-well plates. …
Experimental: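 High-throughput adherence inhibition optical density biofilm assay with C. albicans SN425 in RPMI-1640/MOPS pH 7.0, 384-well plates. Compound (10 µM) was present only during the 90 min adherence step, then washed out, and the biofilm grew 24 h without compound. Biofilm was read as OD600 after removing the media. Scores are the difference from the mean in standard deviations and the plate B-score.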

SMILES | biofilm OD600 B-score
CSc1nnc2c(n1)[nH]c1ccc(C)cc12 | -1.91
CC(=O)NS(=O)(=O)c1ccc(NC(=O)CCC2CCCC2)cc1 | 5.78
OCCN(Cc1ccccc1)CC1CC=CCC1 (stereo not given) | -2.91
O=C(CCN1CCCCC1)c1ccc(Cl)cc1 | -0.21
C1CCCC(NCCN2CCCCC2)CCC1 | -0.251
COc1ccc(C(=O)Nc2ccc3c(c2)OCCO3)cc1OC | 2.28
COc1ccccc1NC(=O)N1CCc2ccccc2C1 | 0.705
Cc1ccccc1-c1nnn(CC(=O)O)n1 | 0.0152
O=S(=O)(NC1CC2CCC1C2)c1ccccc1 (stereo not given) | 2.19
CC(=O)NCCOc1ccc(NC(C)=O)cc1 | 2.29
O=C(O)c1ccccc1SCC(=O)N1CCCCC1 | -2.6
CC(=O)c1cccc(NC(=O)c2ccncc2)c1 | 1.57
Fc1ccccc1OCCCCn1ccnc1 | 1
CC(=O)Nc1cccc(NC(=O)Nc2cccc(Cl)c2)c1 | 1.98
NC(=O)CN1NC2C3CCCCC3C3CCCC(C1=O)C32 (stereo not given) | -2.04
COc1cc(C)c(S(=O)(=O)NCCN2CCOCC2)cc1C | -1.67
CCC(CO)NC(=O)C1COc2ccccc2O1 (stereo not given) | -1.05
O=C(NCc1cccnc1)c1ccc(Cl)cc1 | -0.272
CC(=O)Nc1cccc(NC(=O)CSc2ccccc2)c1 | -0.403
COc1cc(OC)cc(C(=O)Nc2ccc(C(=O)NCC3CCCO3)cc2)c1 (stereo not given) | 1.91

SMILES | biofilm OD600 B-score
NC1=C(N2CCCCC2)C(=O)c2ccccc2C1=O | 1.2
CCOc1ccccc1C(=O)Nc1nnc(COC)s1 | 0.488
O=C(CN1CCOCC1)NC12CC3CC(CC(C3)C1)C2 | 0.0437
N#CC1=C(SCC(=O)Nc2ccccc2)NC(=O)CC1c1ccco1 (stereo not given) | 0.00328
Cc1cc(C(=O)Nc2ccc3c(c2)OCCO3)co1 | -1.96
Cc1ccc(C)n1-c1ccc(-n2cnnn2)cc1 | -2.55
CC(=O)NCCc1ccc(S(=O)(=O)N(C)C)cc1 | 0.702
N#CNC(N)=Nc1ccccc1 | -2.29
CN1CCCN(CC2CC=CCC2)CC1 (stereo not given) | 0.44
Cc1ccsc1CN1CCN(CCO)CC1 | -0.917
COc1ccccc1Cc1nc(-c2ccccn2)no1 | 0.684
CN(CCC#N)C12CC3CC(CC(C3)C1)C2 | -0.799
CCCN(CCO)CC1CCCCC1 | 2.16
Cc1ccc(F)c(NC(=O)C2CCCCC2C(=O)O)c1 (stereo not given) | 0.0176
C=CCNCCOc1cccc(Br)c1 | 3.05
CCOc1ccc(C(=O)NCCCn2ccnc2)cc1 | 1.79
Cc1ccc(S(=O)(=O)Nc2ccccc2CNc2ccccc2)cc1 | 0.144
COc1ccccc1N1CCN(C(=O)Nc2ccc([N+](=O)[O-])cc2)CC1 | -1.5
O=C1c2ccccc2-c2c1cccc2C(=O)N(CCO)CCO | -0.905
O=C(Nc1ccccc1Cl)c1ncn[nH]1 | -0.257

3 compounds from above, ordered by SMILES length, ascending:
SMILES | biofilm OD600 B-score
CC(=O)NCCOc1ccc(NC(C)=O)cc1 | 2.29
CN(CCC#N)C12CC3CC(CC(C3)C1)C2 | -0.799
O=C1c2ccccc2-c2c1cccc2C(=O)N(CCO)CCO | -0.905

— the supplement of paper PMC7824004
